PubChem BioAssay AID1259405, NCATS | 2018

Purpose: 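Mouse-designed siRNAs used to find CHO productivity engineering targets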 (primary screen)
Cells: Chinese hamster CHO-K1 ovary cells with stable secreted eGFP expression
Reagent: single siRNA against mouse genes, 0.8 pmol siRNA per well (2 µl of 400 nM stock)
Duration: 3 days
Read-out: 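Per-well intracellular GFP measured by laser scanning cytometry, plus viability from ATP luminescence, each relative to plate median of non-targeting control wells, in %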
Direction: GFP, % of control: higher = more GFP per well, higher productivity; viability (ATP), % of control: higher = more viable cells (more ATP)
Call rule: 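a knock-down is called active if GFP reaches 120% or more of non-targeting control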
This is a random part of about 50,000 reagents. About 4,000 of them (8%) count as active. 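Mouse siRNA library applied to hamster cells; one well for each siRNA.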 A number with no mark means an inactive call. The numbers tell different reagents against one gene apart.

The opening 10 entries as a preview:
gene knocked down	reagent no.	GFP, % of control	viability (ATP), % of control
Tmem167b	1	69.9	81.1
Tmem167b	2	55.6	37.1
Tmem167b	3	69.6	81.6
Zfp418	1	116	87.9
Zfp418	2	60	77.4
Zfp418	3	110	97.8
Pacsin2	1	82.1	112
Pacsin2	2	68.2	57.7
Lsm4	1	111	82.3
Lsm4	2	45.7	64.2

The listing, from the start:
gene knocked down	reagent no.	GFP, % of control	viability (ATP), % of control
Tmem167b	1	69.9	81.1
Tmem167b	2	55.6	37.1
Tmem167b	3	69.6	81.6
Zfp418	1	116	87.9
Zfp418	2	60	77.4
Zfp418	3	110	97.8
Pacsin2	1	82.1	112
Pacsin2	2	68.2	57.7
Lsm4	1	111	82.3
Lsm4	2	45.7	64.2
Lsm4	3	113	98.9
Epop	1	56.3	74
Epop	2	142 (active)	62.1
Epop	3	170 (active)	75.3
Rpe65	1	83.8	99.7
Rpe65	2	48.3	52.1
Rpe65	3	81.3	73.6
Nolc1	1	70.4	55.3
Nolc1	2	61.7	56.5
Nolc1	3	73.3	60.5
Fibcd1	1	123 (active)	136
Fibcd1	2	88	91.6
Elavl1	1	83.3	109
Elavl1	2	80.1	65.6
Elavl1	3	85.7	114
Cysltr1	1	55.3	78.1
Cysltr1	2	60.3	81.2
Cysltr1	3	49.9	87.8
Unc13a	1	47.9	97.9
Unc13a	2	99.4	112
Unc13a	3	102	90.7
Lsamp	1	126 (active)	84.2
Lsamp	2	56.5	53.8
Nudt7	1	26.8	14.3
Nudt7	2	47.2	90.4
Nudt7	3	71.7	72.2
Cep164	1	67	106
Cep164	2	65.9	78.7
Cep164	3	77.2	89.9
Eif2a	1	92.5	78.9
Eif2a	2	94	111
Eif2a	3	93.1	115
Surf1	1	40.5	46.8
Surf1	2	93.6	70.6
Surf1	3	59.4	93.7
Vmn1r172	1	100	94.4
Vmn1r172	2	49.5	55.1
Vmn1r172	3	73.5	35.6
Scgb2b20	1	54.7	67.9
Scgb2b20	2	35.6	31.7
Scgb2b20	3	50.1	76.3
Hoxc11	1	105	93.7
Hoxc11	2	102	116
Hoxc11	3	67.2	77.4
Tmem200a	1	44.5	76
Tmem200a	2	58.9	77.4
Tmem200a	3	119	123
Eaf1	1	84.8	94.4
Eaf1	2	75	65.5
Crispld2	1	107	99.2
Crispld2	2	78.7	52.7
Crispld2	3	65.3	69.9
Fsaf1	1	94.6	78.8
Fsaf1	2	105	104
Fsaf1	3	94.4	72.6
Slitrk6	1	77.6	73.8
Slitrk6	2	84.7	97
Slitrk6	3	75.5	70.6
Gli3	1	54.7	43.5
Gli3	2	80.7	91.2
Cttn	1	46.3	40.2
Cttn	2	69.2	74.2
Cttn	3	79.1	54.4
Cop1	1	121 (active)	107
Cop1	2	31	41.6
Cop1	3	75.4	75.2
Cd207	1	74.5	83.7
Cd207	2	79.3	94.2
Cd207	3	62.1	55.7
Ankib1	1	34	47.7
Ankib1	2	95.5	83.1
Ankib1	3	67.6	133
Tfdp1	1	94.9	91
Tfdp1	2	95.3	77.4
